The subject of test [1] is ReNCell VM. As to the kind of experiment: neuronal differentiation score (DCX+ cell fraction vs untreated, manual image score) (score (-3 to 3)); higher = more neuronal differentiation. To be noted: 2 uM, 2 weeks.
The test system of test [2] is ReNCell VM. As to the kind of experiment: dopaminergic neuron differentiation score (TH+ cell fraction vs untreated, manual image score) (score (0 to 3)); higher = more TH+ dopaminergic neuron differentiation. As to conditions: 2 uM, 4 weeks, BDNF 10 ng/ml + GDNF 10 ng/ml.

Counter-ions that a name gives are not always drawn. The list shows a part of the results. This data set is noisy: repeats of one test often differ as much as different tests do.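 Cells: ReNCell VM human fetal ventral-midbrain neural progenitors, differentiated mitogen-free. Blinded raters compared doublecortin-stained (early neurons) or tyrosine hydroxylase-stained (dopaminergic neurons) images with untreated wells, where 0 means no change. After repeats and both raters were averaged, compounds scoring 2 or above became hits for retesting.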

Turning to `C=C(C)CN1CC[C@@]23c4c5ccc(O)c4O[C@H]2c2[nH]c4ccccc4c2C[C@]3(O)C1C5` [SDM25N hydrochloride], the neuronal differentiation score with ReNCell VM [1] (library: Tocriscreen) was inactive: 0. Also, the “dopaminergic neuron differentiation score” value in the test with ReNCell VM [2] (library: Tocriscreen) was inactive: 0.

Turning to `COc1ccc2c(c1)[nH]c1c(C)nccc12` [harmine], in the test on ReNCell VM [1] (library: Natural), the neuronal differentiation score was inactive: 0. Besides, the “dopaminergic neuron differentiation score” value in the test on ReNCell VM [2] (library: Natural) was inactive: 0.

As for `C=CCc1cc(OC)c2c(c1OC)OCO2`, in the test on ReNCell VM [1] (library: Spectrum), the neuronal differentiation score is inactive: 0. In addition, in the test with ReNCell VM [2] (library: Spectrum), the “dopaminergic neuron differentiation score” value is inactive: 0.

With `N[C@@]1(C(=O)O)CC[C@@H](C(=O)O)C1`, in the test on ReNCell VM [1] (library: Tocriscreen), the neuronal differentiation score was inactive: 0. Moreover, the “dopaminergic neuron differentiation score” value in the test on ReNCell VM [2] (library: Tocriscreen) was inactive: 0.

Regarding `CCCCC/C=C\C/C=C\C/C=C\C/C=C\CCCC(=O)Nc1ccc(O)cc1`, the neuronal differentiation score in the test with ReNCell VM [1] (library: Tocriscreen) is inactive: 0. Also, in the test with ReNCell VM [2] (library: Tocriscreen), the “dopaminergic neuron differentiation score” value was inactive: 0.

Take `CC(N)C(O)c1ccc(O)c(O)c1` (single isomer, unassigned; (-)) [(-)-alpha-Methylnorepinephrine]: the neuronal differentiation score in the test with ReNCell VM [1] (library: LOPAC) was inactive: 1. For the same compound, in the test on ReNCell VM [2] (library: LOPAC), the “dopaminergic neuron differentiation score” value is inactive: 0.

As for `CC12CCC3C(CCC4=C(O)C(=O)CCC43C)C1CCC2=O` (stereo unspecified) [4-Androsten-4-ol-3,17-dione], the neuronal differentiation score in the test on ReNCell VM [1] (library: LOPAC) is inactive: 1. In addition, the “dopaminergic neuron differentiation score” value in the test on ReNCell VM [2] (library: LOPAC) is inactive: 0.

Consider `CN1C[C@H](C(=O)N[C@]2(C)O[C@@]3(O)[C@@H]4CCCN4C(=O)[C@H](Cc4ccccc4)N3C2=O)C[C@@H]2c3cccc4[nH]cc(c34)C[C@H]21` [Dihydroergotamine methanesulfonate], for which the neuronal differentiation score in the test with ReNCell VM [1] (library: LOPAC) is inactive: 0. The “dopaminergic neuron differentiation score” value in the test with ReNCell VM [2] (library: LOPAC) was inactive: 0.

Turning to `C[C@]12C[C@H]3S[C@H]3C[C@@H]1CC[C@@H]1[C@@H]2CC[C@]2(C)[C@@H](O)CC[C@@H]12` [Epitiostanol], in the test on ReNCell VM [1] (library: Prestwick), the neuronal differentiation score is inactive: 0. In addition, the “dopaminergic neuron differentiation score” value in the test with ReNCell VM [2] (library: Prestwick) is inactive: 0.

With `CC(=O)OCC1=C(C(=O)O)N2C(=O)[C@@H](NC(=O)CCC[C@@H](N)C(=O)O)[C@H]2SC1`, the neuronal differentiation score in the test on ReNCell VM [1] (library: Spectrum) was inactive: 0. In addition, in the test with ReNCell VM [2] (library: Spectrum), the “dopaminergic neuron differentiation score” value was inactive: 0.

Regarding `COc1c2c(cc3c1OCO3)CC[N+](C)=C2`, the neuronal differentiation score with ReNCell VM [1] (library: Spectrum) is inactive: 0. The “dopaminergic neuron differentiation score” value in the test on ReNCell VM [2] (library: Spectrum) was inactive: 0.

In the case of `COc1ccc(OC)c(C(O)C(C)N)c1` (stereo unspecified), the neuronal differentiation score in the test with ReNCell VM [1] (library: Spectrum) is inactive: 0. Besides, the “dopaminergic neuron differentiation score” value in the test with ReNCell VM [2] (library: Spectrum) was inactive: 0.

With `C=C(C)c1cc2cc(C(C)=O)c(O)cc2o1`, the neuronal differentiation score in the test with ReNCell VM [1] (library: Spectrum) was inactive: 0. Also, the “dopaminergic neuron differentiation score” value with ReNCell VM [2] (library: Spectrum) was inactive: 0.

Take `O=C(O)CC[N+](=O)[O-]` [3-Nitropropionic acid]: the neuronal differentiation score in the test on ReNCell VM [1] (library: LOPAC) is inactive: 0. Also, the “dopaminergic neuron differentiation score” value with ReNCell VM [2] (library: LOPAC) was inactive: 0.

For `C[C@]12CCC(=O)C(O)=C1CC[C@@H]1[C@@H]2CC[C@]2(C)C(=O)CC[C@@H]12`, the neuronal differentiation score in the test with ReNCell VM [1] (library: Spectrum) was inactive: 0. Further, in the test with ReNCell VM [2] (library: Spectrum), the “dopaminergic neuron differentiation score” value was inactive: 0.

As to `C[N+]1(C)[C@@H]2C[C@@H](OC(=O)[C@H](CO)c3ccccc3)C[C@H]1[C@@H]1O[C@@H]12` [(-)-Scopolamine methyl bromide], in the test on ReNCell VM [1] (library: LOPAC), the neuronal differentiation score was inactive: 0. In the test with ReNCell VM [2] (library: LOPAC), the “dopaminergic neuron differentiation score” value was inactive: 0.

Regarding `CNCC(O)c1ccc(O)cc1` (stereo unspecified), the neuronal differentiation score in the test on ReNCell VM [1] (library: Spectrum) is inactive: 0. For the same compound, the “dopaminergic neuron differentiation score” value with ReNCell VM [2] (library: Spectrum) is inactive: 0.

Consider `O=C1C=C2C=C[C@@H]3C[C@@]2(O1)[C@H]1CCCCN31` [Securinine], for which, in the test on ReNCell VM [1] (library: Phytochemical), the neuronal differentiation score is inactive: 0. For the same compound, the “dopaminergic neuron differentiation score” value in the test on ReNCell VM [2] (library: Phytochemical) was inactive: 0.

On to `CCCN(CCC)CCc1c[nH]c2ccc(C(N)=O)cc12` [N,N-Dipropyl-5-carboxamidotryptamine maleate], for which the neuronal differentiation score in the test with ReNCell VM [1] (library: LOPAC) is inactive: -1. Further, in the test on ReNCell VM [2] (library: LOPAC), the “dopaminergic neuron differentiation score” value is inactive: 0.

As for `COc1cc2c(cc1O)C[C@H]1c3c(cc(O)c(OC)c3-2)CCN1C`, the neuronal differentiation score in the test on ReNCell VM [1] (library: Spectrum) is inactive: 0. Also, the “dopaminergic neuron differentiation score” value in the test on ReNCell VM [2] (library: Spectrum) is inactive: 0.

With `CO[C@H]1CC=C2CCN3CCC4=C(CC(=O)OC4)[C@]23C1` [Dihydro-beta-erythroidine hydrobromide], in the test with ReNCell VM [1] (library: LOPAC), the neuronal differentiation score was inactive: 0. The “dopaminergic neuron differentiation score” value in the test on ReNCell VM [2] (library: LOPAC) was inactive: 0.

In the case of `C=C(C)[C@@H]1[C@H]2OC(=O)[C@@H]1[C@]1(O)C[C@H]3O[C@]34C(=O)O[C@H]2[C@]14C`, the neuronal differentiation score in the test with ReNCell VM [1] (library: Spectrum) was inactive: 0. Further, in the test on ReNCell VM [2] (library: Spectrum), the “dopaminergic neuron differentiation score” value is inactive: 0.

`C[C@@H]1CC[C@]2(NC1)O[C@H]1C[C@H]3[C@@H]4CC=C5C[C@@H](O)CC[C@]5(C)[C@H]4CC[C@]3(C)[C@H]1[C@@H]2C` [Solasodine]: the neuronal differentiation score in the test on ReNCell VM [1] (library: Phytochemical) was inactive: 0. The “dopaminergic neuron differentiation score” value in the test on ReNCell VM [2] (library: Phytochemical) was inactive: 0.

Turning to `CN1c2ccccc2C(NCCCCCCC(=O)O)c2ccc(Cl)cc2S1(=O)=O` (stereo unspecified) [Tianeptine], the neuronal differentiation score with ReNCell VM [1] (library: Tocriscreen) is inactive: 0. For the same compound, the “dopaminergic neuron differentiation score” value in the test with ReNCell VM [2] (library: Tocriscreen) was inactive: 0.

Consider `CCOC(=O)c1ncc2[nH]c3ccc(OCc4ccccc4)cc3c2c1COC`, for which, in the test with ReNCell VM [1] (library: Tocriscreen), the neuronal differentiation score was inactive: 0. The “dopaminergic neuron differentiation score” value in the test with ReNCell VM [2] (library: Tocriscreen) was inactive: 0.

As to `CC(=O)O[C@H]1C[C@H](O[C@H]2[C@@H](O)C[C@H](O[C@H]3[C@@H](O)C[C@H](O[C@H]4CC[C@@]5(C)[C@H](CC[C@@H]6[C@@H]5C[C@@H](O)[C@]5(C)[C@@H](C7=CC(=O)OC7)CC[C@]65O)C4)O[C@@H]3C)O[C@@H]2C)O[C@H](C)[C@H]1O[C@@H]1O[C@H](CO)[C@@H](O)[C@H](O)[C@H]1O` [Lanatoside C], in the test on ReNCell VM [1] (library: Prestwick), the neuronal differentiation score is inactive: 0. In addition, the “dopaminergic neuron differentiation score” value in the test with ReNCell VM [2] (library: Prestwick) was inactive: 0.

In the case of `O=P1(NCCCl)OCCCN1CCCl` (stereo unspecified) [Ifosfamide], the neuronal differentiation score in the test on ReNCell VM [1] (library: Prestwick) was inactive: 0. The “dopaminergic neuron differentiation score” value in the test on ReNCell VM [2] (library: Prestwick) was inactive: 0.

As for `CCN(CC)C(C)C(=O)c1ccccc1` (stereo unspecified) [Amfepramone hydrochloride], in the test on ReNCell VM [1] (library: Prestwick), the neuronal differentiation score is inactive: 0. For the same compound, in the test with ReNCell VM [2] (library: Prestwick), the “dopaminergic neuron differentiation score” value is inactive: 0.

(Values after the supplement of paper PMC4635364.)
